Source: patent publication US20120087949, “OLIGONUCLEOTIDE MICELLES” (University of Florida Research Foundation, Inc., published 2012)

By UniProt entry, the sequences of proteins in these tests, tags left out.
UniProt P01871, whole entry: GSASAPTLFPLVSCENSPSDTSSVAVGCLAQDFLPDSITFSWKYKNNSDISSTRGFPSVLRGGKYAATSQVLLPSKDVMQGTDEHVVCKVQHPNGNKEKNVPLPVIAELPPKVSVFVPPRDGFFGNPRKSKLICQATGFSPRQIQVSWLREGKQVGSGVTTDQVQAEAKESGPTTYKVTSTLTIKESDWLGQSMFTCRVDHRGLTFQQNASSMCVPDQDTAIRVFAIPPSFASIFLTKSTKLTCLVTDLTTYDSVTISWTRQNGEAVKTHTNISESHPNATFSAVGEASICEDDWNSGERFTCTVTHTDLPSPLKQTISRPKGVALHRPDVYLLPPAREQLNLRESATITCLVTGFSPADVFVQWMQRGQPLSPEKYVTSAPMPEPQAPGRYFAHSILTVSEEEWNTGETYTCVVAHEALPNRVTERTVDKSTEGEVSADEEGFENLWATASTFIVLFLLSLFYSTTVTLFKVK

Key:
[1] = molecular target: IGHM (immunoglobulin heavy mu chain), on Ramos cells (UniProt P01871); experiment: binding assay; conditions: protein on the cell surface, protein details: endogenous on Ramos cells (ATCC CRL-1596), single-stranded DNA, variant of TDO5
[2] = molecular target: IGHM (immunoglobulin heavy mu chain), on Ramos cells (UniProt P01871); experiment: flow cytometry; conditions: Ramos cells at 37 C, 250 nM, 5 min; 5 mM MgCl2 in DPBS; protein on the cell surface; protein details: endogenous on Ramos cells (ATCC CRL-1596); label: FITC; single-stranded DNA

“AACACCGGGAGGATAGTTCGGTGGCTGTTCAGGGTCTCCTCCCGGTGA [Lipo-tdo5-TMR]”: binds ([1]; 5'-diacyl lipid-(PEG)4, membrane anchored, Ramos cell aggregation, abolished by proteinase K, label: 3'-TMR).

“AACACCGGGAGGATAGTTCGGTGGCTGTTCAGGGTCTCCTCCCGGTGA [TDO5]”: no binding [2].

“AACACCGGGAGGATAGTTCGGTGGCTGTTCAGGGTCTCCTCCCGGTGATTTTTTTTTT [biotin-TDO5]”: binds ([1]; immobilized aptamer captured Ramos cells in flow channel, label: 3'-biotin).

Results from cells or extracts need not show a direct contact. For part of these data: No signal at the amounts used counts as a negative.
